In patent US20210355175A1 (University of Washington, published 2021):
Positions count from the first letter of the chain named. These are yes or no findings as the source states them, for the method shown. For some assays here: Binding seen in cells or lysates may run through a third protein. Some results given as binding are weak or reduced against the parent protein; the word gives no strength. Sequences can lack the tags named with a protein. Each block holds one binder with its values, some of them ahead of it.

Legend:
[1] = target: T1, DHD9-13 chain 13b, hexahistidine-TEV tagged; test: co-purification on Ni-NTA after co-expression in E. coli (induced dimerization, DHD9-13)
T1 sequence: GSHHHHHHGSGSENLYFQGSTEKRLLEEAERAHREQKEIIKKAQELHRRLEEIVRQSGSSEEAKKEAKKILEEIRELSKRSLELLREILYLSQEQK

DHD9 chain b = target: T2, DHD9 chain b; test: as above
T2 construct: also called 9b; 9_b
T2 chain: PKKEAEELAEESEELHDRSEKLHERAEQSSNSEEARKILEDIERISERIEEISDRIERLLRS

[2] = target: T3, DHD15-37 chain 37b, hexahistidine-TEV tagged; test: co-purification on Ni-NTA after co-expression in E. coli (induced dimerization, DHD15-37)
T3 sequence: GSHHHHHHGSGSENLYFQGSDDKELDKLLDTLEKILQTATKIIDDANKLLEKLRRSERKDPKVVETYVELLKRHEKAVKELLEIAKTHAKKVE

DHD15-37 chain 15a = target: T4, DHD15-37 chain 15a; test: as above
T4 sequence: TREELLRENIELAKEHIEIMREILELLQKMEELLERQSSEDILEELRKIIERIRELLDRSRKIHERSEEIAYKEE

[3] = target: T5, DHDSC_9-13-37 chain 37b, hexahistidine-TEV tagged; test: size exclusion chromatography
T5 sequence: T3 sequence with H3S, G9H, G11S, S12G

[4] = target: T5, DHDSC_9-13-37 chain 37b, hexahistidine-TEV tagged; test: co-expression in E. coli, one b monomer His-tagged
[5] = target: T6, DHD13-37 chain 37a, hexahistidine-TEV tagged; test: co-purification on Ni-NTA after co-expression in E. coli (induced dimerization, DHD13-37)
T6 sequence: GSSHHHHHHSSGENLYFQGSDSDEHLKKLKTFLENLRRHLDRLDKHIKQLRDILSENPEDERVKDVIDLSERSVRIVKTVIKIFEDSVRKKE

DHD13-37 chain 13a = target: T7, DHD13-37 chain 13a; test: as above
T7 sequence: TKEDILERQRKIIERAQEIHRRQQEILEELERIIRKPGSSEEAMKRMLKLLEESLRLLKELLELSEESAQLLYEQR

- binding [1]: binds
- binding (DHD9 chain b): binds
B1: DHD9-13 fusion, chain 9a-13a (designed binder)
chain: PKEEARELIRKQKELIKEQKKLIKEAKQKSDSRDAERIWKRSREINRESKKINKRIKELIKSGSEGSGSEGSGSTKEDILERQRKIIERAQEIHRRQQEILEELERIIRKPGSSEEAMKRMLKLLEESLRLLKELLELSEESAQLLYEQR

- binding [2]: binds
- binding (DHD15-37 chain 15a): binds
B2: DHD15-37 fusion, chain 15b-37a (designed binder)
chain: TERKLLERSRRLQEESKRLLDEMAEIMRRIKKLLDDPDSEDIAREIKELLRRLKEIIERNQRIAKEHEYIARERSGPGSGSEGSDSDEHLKKLKTFLENLRRHLDRLDKHIKQLRDILSENPEDERVKDVIDLSERSVRIVKTVIKIFEDSVRKKE

B3: DHDSC_9-13-37 scaffold, chain 9a-13a-37a (designed binder)
chain: PKEEARELIRKQKELIKEQKKLIKEAKQKSDSRDAERIWKRSREINRESKKINKRIKELIKSGSEGSGSEGSGSTKEDILERQRKIIERAQEIHRRQQEILEELERIIRKPGSSEEAMKRMLKLLEESLRLLKELLELSEESAQLLYEQRGSEGSGSEGSGSDSDEHLKKLKTFLENLRRHLDRLDKHIKQLRDILSENPEDERVKDVIDLSERSVRIVKTVIKIFEDSVRKKE
- binding [3]: binds
- binding [4]: binds

- binding [5]: binds
- binding (DHD13-37 chain 13a): binds
B4: DHD13-37 fusion, chain 13b-37b (designed binder)
chain: TEKRLLEEAERAHREQKEIIKKAQELHRRLEEIVRQSGSSEEAKKEAKKILEEIRELSKRSLELLREILYLSQEQKGSEGSGSEGSGSDDKELDKLLDTLEKILQTATKIIDDANKLLEKLRRSERKDPKVVETYVELLKRHEKAVKELLEIAKTHAKKVE
